Results published in the supplement of paper PMC12067093, “Discovery and optimisation of a covalent ligand for TRIM25 and its application to targeted protein ubiquitination” (Chemical Science, 2025).
Some of the results follow.

Compound: CC1Cc2ccccc2N1C(=O)C1CCCN(C1)C(=O)CCl (mixture of isomers) [TRIM25 ligand 11 (diastereomer mixture)]
Assay: probe-labelled cysteine peptide fold change vs DMSO (competition) (log2 fold change); higher = less target engagement (more negative = stronger competition)
Conditions: THP-1, incubation time: 4 h
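Further: competitive chemoproteomic profiling in live THP-1 cells with an iodoacetamide desthiobiotin (IA-DTB) probe, comparing probe-labelled peptide intensities in compound-treated cells against DMSO-treated controls.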

Target | probe-labelled cysteine peptide fold change (10 µM) | probe-labelled cysteine peptide fold change (50 µM)
EP300_Q09472_1621_LIAGPAANSLPPIVDPDPLIPCDLMDGR (UniProt Q09472) | 0.519 | -0.508
EIF3D_O15371_19_FMTPVIQDNPSGWGPCAVPEQFR (UniProt O15371) | -0.167 | -0.2
ERAP1_Q9NZ08_193_MAFPCFDEPAFK (UniProt Q9NZ08) | -0.0411 | -0.159
EML4_Q9HC35_428_TTNEVVLAVEFHPTDANTIITCGK (UniProt Q9HC35) | 0.105 | -0.0016
ELP2_Q6IA86_13_VAPVLETSHVFCCPNR (UniProt Q6IA86) | 0.0804 | -0.113
EML4_Q9HC35_820_VHLFQYPCSK (UniProt Q9HC35) | -0.00112 | -0.0256
EPB41L2_O43491_232_VTLLDGTEYSCDLEK (UniProt O43491) | -0.091 | -0.062
ELP2_Q6IA86_769_KTDQVPEINDWTHCVETSQSQSHTLAIR (UniProt Q6IA86) | 0.311 | 0.0912
EIF5A2_Q9GZV4_22_ADEIDFTTGDAGASSTYPMQCSALRK (UniProt Q9GZV4) | -0.201 | -0.216
EIF3J_O75822_207_KITNSLTVLCSEK (UniProt O75822) | 0.0104 | -0.176
EMILIN2_Q9BXX0_553_VQVVEDICLLNIQGKPHGMEGALPNREDR (UniProt Q9BXX0) | -0.0207 | -0.0746
EIF3I_Q13347_120_QMGYQCFVSFFDLR (UniProt Q13347) | 0.312 | 0.251
EMC8_O43402_161_CRDPHHDYCEDWPEAQR (UniProt O43402) | 0.044 | 0.143
EP300_Q09472_1275_MHQICVLHHEIIWPAGFVCDGCLK (UniProt Q09472) | -0.0791 | 0.149
ELP2_Q6IA86_38_GLLAFGTSCSVVLYDPLK (UniProt Q6IA86) | 0.157 | 0.159
EML4_Q9HC35_617_QVCLWNSMEHR (UniProt Q9HC35) | 0.0163 | -0.099
EPM2AIP1_Q7L775_465_IFDPDRYQMVICR (UniProt Q7L775) | -0.0236 | -0.227
EIF4G2_P78344_282_MCSLMLSK (UniProt P78344) | 0.0537 | -0.00385
ENOPH1_Q9UHY7_202_KIADSIGCSTNNILFLTDVTR (UniProt Q9UHY7) | -0.259 | -0.405
EPS15_P42566_269_TGLPSTLLAHIWSLCDTK (UniProt P42566) | -0.0429 | -0.101
EMC1_Q8N766_587_TTAHFPHPPQCTLLVK (UniProt Q8N766) | -0.19 | 0.0174

An excerpt of these results, in markdown.

| Target | probe-labelled cysteine peptide fold change (10 µM) | probe-labelled cysteine peptide fold change (50 µM) |
| --- | --- | --- |
| EP300_Q09472_1621_LIAGPAANSLPPIVDPDPLIPCDLMDGR (UniProt Q09472) | 0.519 | -0.508 |
| EIF3D_O15371_19_FMTPVIQDNPSGWGPCAVPEQFR (UniProt O15371) | -0.167 | -0.2 |
| ERAP1_Q9NZ08_193_MAFPCFDEPAFK (UniProt Q9NZ08) | -0.0411 | -0.159 |
| EML4_Q9HC35_428_TTNEVVLAVEFHPTDANTIITCGK (UniProt Q9HC35) | 0.105 | -0.0016 |
| ELP2_Q6IA86_13_VAPVLETSHVFCCPNR (UniProt Q6IA86) | 0.0804 | -0.113 |
| EML4_Q9HC35_820_VHLFQYPCSK (UniProt Q9HC35) | -0.00112 | -0.0256 |
| ELP2_Q6IA86_769_KTDQVPEINDWTHCVETSQSQSHTLAIR (UniProt Q6IA86) | 0.311 | 0.0912 |
| EIF3J_O75822_207_KITNSLTVLCSEK (UniProt O75822) | 0.0104 | -0.176 |
| EMILIN2_Q9BXX0_553_VQVVEDICLLNIQGKPHGMEGALPNREDR (UniProt Q9BXX0) | -0.0207 | -0.0746 |
| EIF3I_Q13347_120_QMGYQCFVSFFDLR (UniProt Q13347) | 0.312 | 0.251 |
| EMC8_O43402_161_CRDPHHDYCEDWPEAQR (UniProt O43402) | 0.044 | 0.143 |
| EP300_Q09472_1275_MHQICVLHHEIIWPAGFVCDGCLK (UniProt Q09472) | -0.0791 | 0.149 |
| ELP2_Q6IA86_38_GLLAFGTSCSVVLYDPLK (UniProt Q6IA86) | 0.157 | 0.159 |
| EML4_Q9HC35_617_QVCLWNSMEHR (UniProt Q9HC35) | 0.0163 | -0.099 |
| EPM2AIP1_Q7L775_465_IFDPDRYQMVICR (UniProt Q7L775) | -0.0236 | -0.227 |
| ENOPH1_Q9UHY7_202_KIADSIGCSTNNILFLTDVTR (UniProt Q9UHY7) | -0.259 | -0.405 |
| EPS15_P42566_269_TGLPSTLLAHIWSLCDTK (UniProt P42566) | -0.0429 | -0.101 |
| EMC1_Q8N766_587_TTAHFPHPPQCTLLVK (UniProt Q8N766) | -0.19 | 0.0174 |

Next part:

Target | probe-labelled cysteine peptide fold change (10 µM) | probe-labelled cysteine peptide fold change (50 µM)
ENOSF1_Q7L5Y1_307_ALVPLGIGIATGEQCHNR (UniProt Q7L5Y1) | -0.156 | -0.317
EIF4A3_P38919_140_GLLALGDYMNVQCHACIGGTNVGEDIRK (UniProt P38919) | -0.0111 | 0.12
EML3_Q32P44_816_VVAVADDFCK (UniProt Q32P44) | -0.0576 | -0.0482
ELMSAN1_Q6PJG2_442_AVSTGDCGQVLR (UniProt Q6PJG2) | -0.202 | -0.175
EIF3D_O15371_438_WTCCALLAGSEYLK (UniProt O15371) | -0.0143 | 0.0445
ELP2_Q6IA86_127_RTSDPALCTLIVSAAADSAVR (UniProt Q6IA86) | 0.0716 | -0.057
EIF4G3_O43432_913_MLTEAIMHDCVVK (UniProt O43432) | -0.018 | -0.0478
EIF4A1_P60842_131_VVMALGDYMGASCHACIGGTNVR (UniProt P60842) | 0.218 | -0.0548
EIF3I_Q13347_120_QMGYQCFVSFFDLRDPSQIDNNEPYMK (UniProt Q13347) | -0.281 | -0.122
ENAH_Q8N8S7_62_KIQDHQVVINCAIPK (UniProt Q8N8S7) | -0.0322 | -0.115
EMB_Q6PCB8_180_NKPLISYVGDSTVLTCK (UniProt Q6PCB8) | 0.0191 | 0.291
EPB41L1_Q9H4G0_111_VTLLDASEYECEVEK (UniProt Q9H4G0) | -0.0627 | 0.0483
ELP1_O95163_744_EAFECMR (UniProt O95163) | -0.186 | 0.141
EPRS_P07814_856_INEAVECLLSLK (UniProt P07814) | -0.0867 | -0.176
EMC2_Q15006_192_AAFCLEELMMTNPHNHLYCQQYAEVK (UniProt Q15006) | 0.0434 | 0.161
EML3_Q32P44_825_VHLFQYPCAR (UniProt Q32P44) | 0.239 | 0.385
EIF4G3_O43432_1534_MFFDCLYDEEVISEDAFYK (UniProt O43432) | 0.017 | 0.00303
EIF3D_O15371_327_NLAMEATYINHNFSQQCLR (UniProt O15371) | -0.201 | -0.044
EPG5_Q9HCE0_1586_QYVNREEQTTLHLECR (UniProt Q9HCE0) | 0.148 | 0.0575
EPB41L2_O43491_424_LGVCANGLLIYK (UniProt O43491) | -0.0375 | 0.0374
ELANE_P08246_198_QAGVCFGDSGSPLVCNGLIHGIASFVR (UniProt P08246) | 0.0896 | 0.126

Target | probe-labelled cysteine peptide fold change (10 µM) | probe-labelled cysteine peptide fold change (50 µM)
ELP3_Q9H9T3_456_CSEETFR (UniProt Q9H9T3) | 0.298 | 0.202
EPC1_Q9H2F5_135_KMDICPLQFEEMIDRLEK (UniProt Q9H2F5) | -0.115 | -0.0254
EIF3G_O75821_139_EDLNCQEEEDPMNK (UniProt O75821) | 0.0196 | -0.165
ELOF1_P60002_26+29_MTGTLETQFTCPFCNHEK (UniProt P60002) | -0.14 | -0.278
EPHX1_P07099_182_NHGLSDEHVFEVICPSIPGYGFSEASSK (UniProt P07099) | 0.0234 | 0.0755
EIF3J_O75822_207_ITNSLTVLCSEK (UniProt O75822) | -0.123 | -0.423
EML3_Q32P44_310_CLAVHPDGVR (UniProt Q32P44) | -0.0769 | 0.0339
EPG5_Q9HCE0_318_QLLLAEAELLTLTSDCQNAK (UniProt Q9HCE0) | 0.102 | 0.144
EMC1_Q8N766_338_TVAAVMACR (UniProt Q8N766) | 0.153 | 0.0463
ELP1_O95163_1025_ALSAFLTCGNWK (UniProt O95163) | -0.195 | 0.0614
EPRS_P07814_623_VTWLAETTHALPIPVICVTYEHLITKPVLGK (UniProt P07814) | -0.259 | 0.127
ELF2_Q15723_110_TIEAAEALLHMESPTCLR (UniProt Q15723) | -0.0447 | -0.346
EIF4A2_Q14240_132_VILALGDYMGATCHACIGGTNVR (UniProt Q14240) | -0.0236 | 0.0601
EIF4G1_Q04637_821_CLMALK (UniProt Q04637) | 0.0384 | 0.13
EIF3M_Q7L2H7_52_GAEISEENSEGGLHVDLAQIIEACDVCLK (UniProt Q7L2H7) | -0.0739 | -0.0209
EPRS_P07814_1076_KLGVENCYFPMFVSQSALEK (UniProt P07814) | 0.235 | 0.111
EML3_Q32P44_420_DSSCIVTSGK (UniProt Q32P44) | -0.000308 | 0.0483
EPDR1_Q9UM22_88_ALIPCK (UniProt Q9UM22) | 0.0598 | 0.0572
ENAH_Q8N8S7_7_SEQSICQAR (UniProt Q8N8S7) | 0.28 | 0.538
EIF5_P55010_138_LCTFILK (UniProt P55010) | -0.136 | -0.195
EIF4G1_Q04637_1516_YLCDEQK (UniProt Q04637) | 0.0853 | 0.0855

Target | probe-labelled cysteine peptide fold change (10 µM) | probe-labelled cysteine peptide fold change (50 µM)
EMC10_Q5UCC4_49_EGEACGTVGLLLEHSFEIDDSANFR (UniProt Q5UCC4) | -0.235 | -0.0512
EIF3B_P55884_384_FSHQGVQLIDFSPCER (UniProt P55884) | -0.039 | 0.0236
EIF4A3_P38919_137_GLLALGDYMNVQCHACIGGTNVGEDIR (UniProt P38919) | -0.194 | -0.0413
ELAC2_Q9BQ52_421_EGPTLSVPMVQGECLLK (UniProt Q9BQ52) | -0.195 | -0.0203
EIF5_P55010_320_YLLHGLECVVAMHQAQLISK (UniProt P55010) | 0.0109 | 0.0824
ENOPH1_Q9UHY7_52_EYLQTHWEEEECQQDVSLLR (UniProt Q9UHY7) | 0.193 | -0.0562
ELP2_Q6IA86_14_VAPVLETSHVFCCPNR (UniProt Q6IA86) | 0.0335 | 0.118
EIPR1_Q53HC9_247_QYYLASCGDDCK (UniProt Q53HC9) | 0.03 | -0.158
EMG1_Q92979_171_NPVSDHFPVGCMK (UniProt Q92979) | 0.0789 | -0.0589
ELOB_Q15370_60_TLGECGFTSQTARPQAPATVGLAFR (UniProt Q15370) | -0.0882 | -0.281
ELOB_Q15370_89_ADDTFEALCIEPFSSPPELPDVMK (UniProt Q15370) | 0.123 | -0.171
ELMO1_Q92556_438_VGELPSETCNDFHPMFFTHDR (UniProt Q92556) | 0.456 | 0.00269
EML2_O95834_395_AQFVTCGQDK (UniProt O95834) | 0.034 | -0.00802
EPHX2_P34913_154_MHFDFLIESCQVGMVKPEPQIYK (UniProt P34913) | -0.417 | -0.103
EPRS_P07814_92+105_LSSCDSFTSTINELNHCLSLR (UniProt P07814) | 0.0478 | 0.0577
EPRS_P07814_92_LSSCDSFTSTINELNHCLSLR (UniProt P07814) | 0.208 | -0.0304
EIF3M_Q7L2H7_134_VAASCGAIQYIPTELDQVRK (UniProt Q7L2H7) | 0.217 | 0.402
EMG1_Q92979_134_FCGLMVQLLHK (UniProt Q92979) | -0.0081 | 0.097
EIF3E_P60228_250_GRDNIIDLFLYQPQYLNAIQTMCPHILR (UniProt P60228) | -0.0393 | -0.0709
